From patent US20200392228A1 come the findings set out here.

Where a chain is given by its changes, count along the chain named. Results are given in words; binding and its absence hold for the method and conditions named. Binding can be weak; no strength is given.

To fix the notation:
B1: MAdCAM antibody Clone ID 55 of Table 7 (IgG) (antibody, V domains shown)
VH: EVQLLESGGGLVQPGGSLRLSCAASGFTFDDFAMHWVRQAPGKGLEWVSGISGNGDSRYYADSVKGRFTISRDNSKNTLYLQMNSLRAEDTAVYYCARDASYGGNYGMDVWGQGTTVTVSS
VL: DIQMTQSPSSLSASVGDRVTITCQASQDIRNYLNWYQQKPGKAPKLLIYKASTLESGVPSRFSGSGSGTDFTLTISSLQPEDFATYYCQQANSFPLTFGPGTKVDIK
B2: MAdCAM antibody Clone ID 84 of Table 7 (IgG) (antibody, V domains shown)
VH: QVQLVQSGAEVKKPGASVKVSCKASGGTFSSSAISWVRQAPGQGLEWMGWISAYNGYTNYAQKFQGRVTMTRDTSTSTVYMELSSLRSEDTAVYYCASRVHSGGSYPDDYWGQGTLVTVSS
VL: DIQMTQSPSSLSASVGDRVTITCQASEHIYNYLNWYQQKPGKAPKLLIYAASSLQSGVPSRFSGSGSGTDFTLTISSLQPEDFATYYCQQTDSIPITFGQGTKVEIK
B3: MAdCAM antibody Clone ID 74 of Table 7 (IgG) (antibody, V domains shown)
VH: QVQLVQSGAEVKKPGASVKVSCKASGYTFTGYYMHWVRQAPGQGLEWMGIINPSGGNTKYAQKFQGRVTMTRDTSTSTVYMELSSLRSEDTAVYYCTTADYYYYMDVWGKGTTVTVSS
VL: DIQMTQSPSSLSASVGDRVTITCRASQGISNYLAWYQQKPGKAPKLLIYAASSLQSGVPSRFSGSGSGTDFTLTISSLQPEDFATYYCQQYYSNADFGQGTKVEIK
B4: MAdCAM antibody Clone ID 1 of Table 6 (scFv) (scFv)
scFv: EVQLLESGGGLVQPGGSLRLSCAASGFTFSSYGMHWVRQAPGKGLEWVAVISDDGSDKYYADSVKGRFTISRDNSKNTLYLQMNSLRAEDTAVYYCTTSKYYYYYGMDVWGQGTTVTVSSGGGGSGGGGSGGGGSGGGGSDIQMTQSPSSLSASVGDRVTITCQASQDISKSLNWYQQKPGKAPKLLIYAASSLQSGVPSRFSGSGSGTDFTLTISSLQPEDFATYYCQQGYSTPLTFGGGTKVEIK
B5: MAdCAM antibody Clone ID 7 of Table 6 (scFv) (scFv)
scFv: QVQLVQSGAEVKKPGASVKVSCKASGYTFTGYHIHWVRQAPGQGLEWMGIINPSGGSTIYAQKFQGRVTMTRDTSTSTVYMELSSLRSEDTAVYYCAKDWSSWYLGPFDYWGQGTLVTVSSGGGGSGGGGSGGGGSGGGGSDIQMTQSPSSLSASVGDRVTITCRASQNISSSLNWYQQKPGKAPKLLIYAASSLQSGVPSRFSGSGSGTDFTLTISSLQPEDFATYYCQQSYTTPYTFGQGTKVEIK
B6: MAdCAM antibody Clone ID 63 of Table 7 (IgG) (antibody, V domains shown)
VH: EVQLLESGGGLVQPGGSLRLSCAASGFTFNNYGMNWVRQAPGKGLEWVSRINSDGSSTSYADSVKGRFTISRDNSKNTLYLQMNSLRAEDTAVYYCARGAYYYYYMDVWGQGTLVTVSS
VL: EIVMTQSPATLSVSPGERATLSCRASQSVSGSYLAWYQQKPGQAPRLLIYATSSRASGIPARFSGSGSGTEFTLTISSLQSEDFAVYYCQQYYSGLTFGQGTKVEIK
B7: MAdCAM antibody Clone ID 83 of Table 7 (IgG) (antibody, V domains shown)
VH: EVQLLESGGGLVQPGGSLRLSCAASGFTFSSYWMHWVRQAPGKGLEWVAAISYDGKYKDYEDSVKGRFTISRDNSKNTLYLQMNSLRAEDTAVYYCARENKQWLASFDYWGQGTLVTVSS
VL: DIQMTQSPSSLSASVGDRVTITCQASQDISNFVNWYQQKPGKAPKLLIYAANLRSGVPSRFSGSGSGTDFTLTISSLQPEDFATYYCQQANSFPVTFGPGTKVDIK
B8: MAdCAM antibody Clone ID 23 of Table 7 (IgG) (antibody, V domains shown)
VH: EVQLLESGGGLVQPGGSLRLSCAASGFTFDDYAMHWVRQAPGKGLEWVSYIDTSSSHLYYADSVKGRFTISRDNSKNTLYLQMNSLRAEDTAVYYCARDEAAAGYYGMDVWGQGTTVTVSS
VL: DIQMTQSPSSLSASVGDRVTITCQAGQDISNYLNWYQQKPGKAPKLLIYDASNLETGVPSRFSGSGSGTDFTLTISSLQPEDFATYYCQQTYSTPITFGQGTKLEIK
B9: MAdCAM antibody Clone ID 76 of Table 7 (IgG) (antibody, V domains shown)
VH: EVQLLESGGGLVQPGGSLRLSCAASGFTFDDYTMHWVRQAPGKGLEWVSDISGSGGSTYYADSVKGRFTISRDNSKNTLYLQMNSLRAEDTAVYYCAKDVVVAGTPLHFDYWGQGTLVTVSS
VL: B8 VL with G26S, D50A, N53Y, E55Q, T56S, T91A, Y92H, S93N, T94Y, K103R
B10: MAdCAM antibody Clone ID 60 of Table 7 (IgG) (antibody, V domains shown)
VH: EVQLLESGGGLVQPGGSLRLSCAASGFTFSDHGMHWVRQAPGKGLEWVSVIYGGESTYYADSVKGRFTISRDNSKNTLYLQMNSLRAEDTAVYYCARDPAVAGGGIFDYWGQGTLVTVSS
VL: B8 VL with Q24R, G26S, D28G, N34A, T91S, P95C, I96Y
B11: MAdCAM antibody Clone ID 65 of Table 7 (IgG) (antibody, V domains shown)
VH: QVQLVQSGAEVKKPGASVKVSCKASGYTFTSYDINWVRQAPGQGLEWMGWMNPNSGNTGYAQKFQGRVTMTRDTSTSTVYMELSSLRSEDTAVYYCAKDSDYSNLLWDYWGQGTLVTVSS
VL: DIQMTQSPSSLSASVGDRVTITCRASQDITNDLGWYQQKPGKAPKLLIYQASSLESGVPSRFSGSGSGTDFTLTISSLQPEDFATYYCQQSYTIPLTFGQGTKVEIK
B12: MAdCAM antibody Clone ID 79 of Table 7 (IgG) (antibody, V domains shown)
VH: EVQLLESGGGLVKPGGSLRLSCAASGFTFDDYAMHWVRQAPGKGLEWVASITSSSAFIDYAASVKGRFTISRDDSKNTLYLQMNSLKTEDTAVYYCARERVDWNSYFDLWGRGTLVTVSS
VL: EIVMTQSPATLSVSPGERATLSCRASQGISNSYLAWYQQKPGQAPRLLIYGASTRATGIPARFSGSGSGTEFTLTISSLQSEDFAVYYCQQYYTYPPTFGPGTKVDIK
B13: MAdCAM antibody Clone ID 30 of Table 7 (IgG) (antibody, V domains shown)
VH: EVQLLESGGGLVQPGGSLRLSCAASGFTFSSYAMHWVRQAPGKGLEWVSGISGSGGSAYYADSVKGRFTISRDNSKNTLYLQMNSLRAEDTAVYYCATSQAPVDYYYYGMDVWGQGTTVTVSS
VL: DIQMTQSPSSLSASVGDRVTITCRASQSISSWLAWYQQKPGKAPKLLIYAASNLQRGVPSRFSGSGSGTDFTLTISSLQPEDFATYYCQQSYSIPITFGQGTKVEIK
B14: MAdCAM antibody Clone ID 82 of Table 7 (IgG) (antibody, V domains shown)
VH: QVQLVQSGAEVKKPGASVKVSCKASGYTFTRHWIHWVRQAPGQGLEWMGWINVKTGGAGYAQKFQGRVTMTRDTSTSTVYMELSSLRSEDTAVYYCARESSGWYGTDVWGQGTTVTVSS
VL: B13 VL with V19A, S31N, W32Y, N53S, R56S, Y92N, I94F, I96L, Q100G
B15: MAdCAM antibody Clone ID 9 of Table 6 (scFv) (scFv)
scFv: EVQLLESGGGLVQPGGSLRLSCAASGFTFSDYYMNWVRQAPGKGLEWVSVIGESGGSTYYADSVKGRFTISRDNSKNTLYLQMNSLRAEDTAVYYCAADPVSRWPKHGGGDYWGQGTLVTVSSGGGGSGGGGSGGGGSGGGGSDIQMTQSPSSLSASVGDRVTITCRASQGISSSLAWYQQKPGKAPKLLIYAASTLQSGVPSRFSGSGSGTDFTLTISSLQPEDFATYYCQQSYSTPWTFGQGTKVEIK

The assay has as its target Cyno MAdCAM protein (cyno). Description: Octet.
Take B1: the binding entry was “binds”.

Turning to B2, the binding entry is listed as “binds”.

Consider B3, for which the binding result is “binds”.

B4: the binding result is given as “binds”.

Regarding B5, the binding entry was “binds”.

For B6, the binding entry is reported as “binds”.

B7: the binding entry is recorded as “binds”.

For B8, the binding entry is “binds”.

As for B9, the binding result is listed as “binds”.

In the case of B10, the binding entry is recorded as “binds”.

With B11, the binding result is “binds”.

Consider B12, for which the binding result is “binds”.

As for B13, the binding result was “binds”.

As to B14, the binding entry is listed as “binds”.

On to B15, for which the binding entry is “binds”.
